Source: US6358491B1 (Berlex Laboratories, Inc., priority 1999, dated 2002)

Assay: general procedure: Fmoc solid-phase peptide synthesis; 2-chlorotrityl resin; HATU/DIEA (collidine for Cys); HBTU/HOBt for chloroacetic acid
Conditions: for final HPLC purity: peak integration
[1] = whole synthesis, scale 2.75 mmol

Question: For “ClCH2CO-β-Dap(Boc)-Dab(Boc)-Cys(Trt)-Thr(tBu)(ol)”, which “final HPLC purity” value (whole synthesis, scale of the general procedure 2.75 mmol) is on record?
Answer: greater than 90%

Question: What about the isolated mass (whole synthesis, scale 2.76 mmol) of the same substance?
Answer: 970 mg

Question: For “PEPTIDE1{Y.[dW].K.T.F.[meHcy]}|PEPTIDE2{[CH2CO].[bDap].[Dab].C.[Tol]}$PEPTIDE1,PEPTIDE1,1:R1-6:R2|PEPTIDE1,PEPTIDE2,6:R3-1:R1$$$V2.0”, which “final HPLC purity” value (conjugation step, UV 220 nm) is on record?
Answer: greater than 95%

Question: Which “final HPLC purity” value (whole synthesis, UV 220 nm, scale of the general procedure 2.75 mmol) does the source give for cyclo-Tyr-D-Trp-Lys-Thr-Phe-(N—CH3)Hcy here?
Answer: >95%

Question: And the crude mass [1]?
Answer: 4.23 g

Question: And the isolated mass [1]?
Answer: 510 mg

HELM strings list residues between dots; [ac] is acetyl, [am] amide, other brackets name non-standard units.
